Assay results as given in article PMC3184947.

What was measured:
[1] = target: T1, Cdc11-GFP (S. cerevisiae) (UniProt P32458); test: affinity purification with mass spectrometry; Cdc11-GFP immunopurified from the esa1-L254P strain background at 37°C, co-purified proteins found by mass spectrometry
T1 sequence: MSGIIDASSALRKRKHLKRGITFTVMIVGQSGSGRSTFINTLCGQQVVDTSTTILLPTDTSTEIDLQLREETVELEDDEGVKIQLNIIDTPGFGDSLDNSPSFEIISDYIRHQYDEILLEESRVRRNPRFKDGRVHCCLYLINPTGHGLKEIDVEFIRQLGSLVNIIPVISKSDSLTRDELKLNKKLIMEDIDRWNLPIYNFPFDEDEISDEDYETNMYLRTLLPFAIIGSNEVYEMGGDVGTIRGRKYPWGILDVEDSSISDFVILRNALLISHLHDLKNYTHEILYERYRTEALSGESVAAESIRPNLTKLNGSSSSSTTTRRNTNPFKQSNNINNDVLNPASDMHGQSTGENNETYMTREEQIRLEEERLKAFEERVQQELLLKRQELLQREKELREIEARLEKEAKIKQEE

[2] = target: T2, Cdc11-TAP (S. cerevisiae) (UniProt P32458); test: affinity purification with mass spectrometry; single step purification of TAP-tagged septins (Cdc11-TAP or Shs1-TAP) on IgG magnetic beads from 40 mg yeast whole cell extract, 300 mM sodium acetate, 4°C; half of each sample treated with NuA4 and acetyl coenzyme A; bands cut from silver stained SDS-PAGE gel, trypsin, LC-MS/MS
T2 sequence: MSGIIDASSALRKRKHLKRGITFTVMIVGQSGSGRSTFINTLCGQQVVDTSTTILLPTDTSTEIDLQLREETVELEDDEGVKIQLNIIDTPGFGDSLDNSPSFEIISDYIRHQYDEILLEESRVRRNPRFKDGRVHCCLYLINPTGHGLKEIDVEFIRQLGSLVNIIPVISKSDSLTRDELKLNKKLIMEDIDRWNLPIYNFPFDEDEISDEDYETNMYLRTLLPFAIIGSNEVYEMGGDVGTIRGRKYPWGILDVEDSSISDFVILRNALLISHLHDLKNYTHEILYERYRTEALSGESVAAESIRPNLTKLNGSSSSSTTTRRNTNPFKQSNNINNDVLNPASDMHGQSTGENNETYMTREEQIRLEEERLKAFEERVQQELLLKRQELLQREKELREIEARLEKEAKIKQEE

[3] = target: T3, Shs1-TAP (S. cerevisiae) (UniProt Q07657); test: as above
T3 sequence: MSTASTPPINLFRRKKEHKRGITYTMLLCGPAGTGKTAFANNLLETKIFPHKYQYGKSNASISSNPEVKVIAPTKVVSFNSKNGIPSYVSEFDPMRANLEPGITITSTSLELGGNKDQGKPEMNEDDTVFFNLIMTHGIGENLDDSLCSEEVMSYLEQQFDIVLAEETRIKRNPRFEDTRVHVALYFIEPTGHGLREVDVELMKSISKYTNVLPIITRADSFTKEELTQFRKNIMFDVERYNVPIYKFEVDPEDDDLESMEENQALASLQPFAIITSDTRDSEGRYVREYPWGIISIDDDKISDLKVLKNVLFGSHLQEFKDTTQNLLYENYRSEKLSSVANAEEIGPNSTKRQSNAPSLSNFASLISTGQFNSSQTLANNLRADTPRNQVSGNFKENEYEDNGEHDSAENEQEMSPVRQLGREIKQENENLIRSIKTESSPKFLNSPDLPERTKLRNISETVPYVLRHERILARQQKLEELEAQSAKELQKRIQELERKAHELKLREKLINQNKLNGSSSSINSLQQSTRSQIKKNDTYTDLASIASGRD

[4] = target: T4, Cdc11-TAP (S. cerevisiae), P32458; test: as above; settings: remark: other sources report otherwise
T4 chain: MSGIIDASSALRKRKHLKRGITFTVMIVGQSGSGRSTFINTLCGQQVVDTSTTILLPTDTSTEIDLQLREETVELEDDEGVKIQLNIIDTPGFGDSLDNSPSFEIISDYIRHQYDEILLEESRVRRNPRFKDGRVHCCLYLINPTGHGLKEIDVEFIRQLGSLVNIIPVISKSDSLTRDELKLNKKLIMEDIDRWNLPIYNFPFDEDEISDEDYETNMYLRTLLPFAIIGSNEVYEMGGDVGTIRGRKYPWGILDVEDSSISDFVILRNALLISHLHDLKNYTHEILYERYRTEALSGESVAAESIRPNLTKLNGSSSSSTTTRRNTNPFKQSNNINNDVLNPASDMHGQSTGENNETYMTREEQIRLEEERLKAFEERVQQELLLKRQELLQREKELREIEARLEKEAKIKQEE

[5] = target: T5, Shs1-TAP (S. cerevisiae), Q07657; test: as above; settings: remark: other sources report otherwise
T5 chain: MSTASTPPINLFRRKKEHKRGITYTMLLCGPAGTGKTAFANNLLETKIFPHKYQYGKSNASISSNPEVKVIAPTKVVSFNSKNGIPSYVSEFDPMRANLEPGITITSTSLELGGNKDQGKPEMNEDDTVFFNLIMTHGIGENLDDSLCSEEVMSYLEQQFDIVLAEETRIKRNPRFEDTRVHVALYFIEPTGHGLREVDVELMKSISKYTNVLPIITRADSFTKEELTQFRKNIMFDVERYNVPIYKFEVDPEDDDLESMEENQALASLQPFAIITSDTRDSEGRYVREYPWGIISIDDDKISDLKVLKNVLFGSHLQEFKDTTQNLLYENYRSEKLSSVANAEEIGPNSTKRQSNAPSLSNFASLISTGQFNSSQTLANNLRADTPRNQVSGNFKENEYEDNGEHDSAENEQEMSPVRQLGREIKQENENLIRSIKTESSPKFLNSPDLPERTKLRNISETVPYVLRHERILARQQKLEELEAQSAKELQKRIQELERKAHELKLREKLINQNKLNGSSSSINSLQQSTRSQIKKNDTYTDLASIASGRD

Row | Molecule | binding [1] | binding [3] | other results
1 | Act1 (from UniProt P60010 1-375) | binds |  | 
2 | Abp1 (protein, UniProt P15891 1-592) MALEPIDYTTHSREIDAEYLKIVRGSDPDTTWLIISPNAKKEYEPESTGSSFHDFLQLFDETKVQYGLARVSPPGSDVEKIIIIGWCPDSAPLKTRASFAANFAAVANNLFKGYHVQVTARDEDDLDENELLMKISNAAGARYSIQTSSKQQGKASTPPVKKSFTPSKSPAPVSKKEPVKTPSPAPAAKISSRVNDNNDDDDWNEPELKERDFDQAPLKPNQSSYKPIGKIDLQKVIAEEKAKEDPRLVQKPTAAGSKIDPSSDIANLKNESKLKRDSEFNSFLGTTKPPSMTESSLKNDDDKVIKGFRNEKSPAQLWAERKAKQNSGNAETKAEAPKPEVPEDEPEGEPDVKDLKSKFEGLAASEKEEEEMENKFAPPPKKSEPTIISPKPFSKPQEPVKAEEAEQPKTDYKKIGNPLPGMHIEADNEEEPEENDDDWDDDEDEAAQPPLPSRNVASGAPVQKEEPEQEEIAPSLPSRNSIPAPKQEEAPEQAPEEEIEEEAEEAAPQLPSRSSAAPPPPPRRATPEKKPKENPWATAEYDYDAAEDNELTFVENDKIINIEFVDDDWWLGELEKDGSKGLFPSNYVSLGN | binds |  | 
3 | Crn1 (protein, UniProt Q06440 1-651) MSGKFVRASKYRHVFGQAAKKELQYEKLKVTNNAWDSNLLKTNGKFIAVNWNASGGGAFAVIPIEEVGKAPDQVPLFRGHTAQVLDTDFDPFNDHRIASGSDDSKIGIWDIPENYKFHDHVDEDGEPIDIKPVKFLTGHARKVGHVLYHPVAENVLASSSGDYTVKLWNVETGKDMITLKHPDMVTSMSFSYDGNYLATVARDKKLRVWNIREEKIVSEGPAHTGAKNQRVVWLGNSDRLATTGFSKLSDRQIGIWDAFNIEKGDLGGFYTVDQSSGILMPFYDEGNKILYLVGKGDGNIRYYEFQNDELFELSEFQSTEAQRGFAVAPKRMVNVKENEVLKGFKTVVDQRIEPVSFFVPRRSEEFQEDIYPDAPSNKPALTAEEWFSGKSVEGPILVSMRSIYDGSAPSFHEAKRPQQPTTQETALEEKKEQPKVEKPISESEKEVKQEAPKSPSPLKSASSSSTINHVLKEDNSINKLLKKSSDIDQVNNAEDPSRDTSGWEEADDEPAPIKIETPVTPTETKKDRTPKVEPSKELKPEPVSIATDRKQEQSLPQEEKSSEKTKSPEQEKSATPPSSITAAKTAITASSKEEPSAARTSPKSLGLKKSVEKLSTLVLQLEDVVDKLTKANLDKDERLLKLEQKIGELSK | binds |  | 
4 | Cdc3 (protein, UniProt P32457 1-520) MSLKEEQVSIKQDPEQEERQHDQFNDVQIKQESQDHDGVDSQYTNGTQNDDSERFEAAESDVKVEPGLGMGITSSQSEKGQVLPDQPEIKFIRRQINGYVGFANLPKQWHRRSIKNGFSFNLLCVGPDGIGKTTLMKTLFNNDDIEANLVKDYEEELANDQEEEEGQGEGHENQSQEQRHKVKIKSYESVIEENGVKLNLNVIDTEGFGDFLNNDQKSWDPIIKEIDSRFDQYLDAENKINRHSINDKRIHACLYFIEPTGHYLKPLDLKFMQSVYEKCNLIPVIAKSDILTDEEILSFKKTIMNQLIQSNIELFKPPIYSNDDAENSHLSERLFSSLPYAVIGSNDIVENYSGNQVRGRSYPWGVIEVDNDNHSDFNLLKNLLIKQFMEELKERTSKILYENYRSSKLAKLGIKQDNSVFKEFDPISKQQEEKTLHEAKLAKLEIEMKTVFQQKVSEKEKKLQKSETELFARHKEMKEKLTKQLKALEDKKKQLELSINSASPNVNHSPVPTKKKGFLR |  | binds | binding [2]: binds
5 | Cdc10, P25342 1-322 (protein) MDPLSSVQPASYVGFDTITNQIEHRLLKKGFQFNIMVVGQSGLGKSTLINTLFASHLIDSATGDDISALPVTKTTEMKISTHTLVEDRVRLNINVIDTPGFGDFIDNSKAWEPIVKYIKEQHSQYLRKELTAQRERFITDTRVHAILYFLQPNGKELSRLDVEALKRLTEIANVIPVIGKSDTLTLDERTEFRELIQNEFEKYNFKIYPYDSEELTDEELELNRSVRSIIPFAVVGSENEIEINGETFRGRKTRWSAINVEDINQCDFVYLREFLIRTHLQDLIETTSYIHYEGFRARQLIALKENANSRSSAHMSSNAIQR |  |  | binding [4]: binds; binding [5]: binds
6 | Cdc12 (protein, UniProt P32468 1-407) MSAATATAAPVPPPVGISNLPNQRYKIVNEEGGTFTVMLCGESGLGKTTFINTLFQTVLKRADGQQHRQEPIRKTVEIDITRALLEEKHFELRVNVIDTPGFGDNVNNNKAWQPLVDFIDDQHDSYMRQEQQPYRTKKFDLRVHAVLYFIRPTGHGLKPIDIETMKRLSTRANLIPVIAKADTLTAQELQQFKSRIRQVIEAQEIRIFTPPLDADSKEDAKSGSNPDSAAVEHARQLIEAMPFAIVGSEKKFDNGQGTQVVARKYPWGLVEIENDSHCDFRKLRALLLRTYLLDLISTTQEMHYETYRRLRLEGHENTGEGNEDFTLPAIAPARKLSHNPRYKEEENALKKYFTDQVKAEEQRFRQWEQNIVNERIRLNGDLEEIQGKVKKLEEQVKSLQVKKSHLK |  | binds | 

These are yes or no findings as the source states them, for the method shown. In cells and extracts the contact can be indirect. Here binding means that the protein was enriched with, or labelled near, the bait; the list need not be complete. For some assays here: Sequences can lack the tags named with a protein.
